From PubChem BioAssay AID1259415 (National Center for Advancing Translational Sciences (NCATS), 2018)
In all, about 410,000 compounds went through this assay and about 18,000 (4.4%) were called active. The shares of active, inactive and inconclusive entries below differ from those in the screen. Rule as the data show it: active = activity change below about -60%; inconclusive = no clear call, values can overlap the other calls; inactive = above about -39%. Some structures have more than one record in an assay (separate samples or runs), and their calls can disagree.

Assay: qHTS Assay for inhibitors of the human cytomegalovirus (HCMV)
Details: HFF cells, HCMV-luciferase reporter, 72 h; at 57.5 µM; stronger effect = lower value
How it was run: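 Inhibition of viral replication was scored as loss of reporter luminescence in HFFs infected with HCMV-luciferase (MOI 1 PFU/cell) for 72 h; compounds tested at 2 doses, normalized to buffer and Salinomycin controls.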
% is scaled to controls: 0 for no effect and ±100 for the full control effect.

SMILES	activity change, negative = inhibition
Cc1ccc(C(=O)COC(=O)CCC(=O)Nc2cccc(Cl)c2)cc1[N+](=O)[O-]	inconclusive: -51.8%
Cc1ccc(CNC(=O)C(=O)NCC2CCCN2S(=O)(=O)c2cc(C)ccc2C)cc1 (stereo not drawn)	inconclusive: -46.1%
BrC(/C=N/N1CCN(Cc2ccccc2)CC1)=C/c1ccccc1	inconclusive: -41.4%
Cc1ccc(N(CCCCN2C(=O)c3ccccc3C2=O)C(=O)c2ccc(Cl)s2)cc1	active: -62.5%
COC(=O)c1cc2occc2n1Cc1nc(-c2ccccc2F)oc1C	inconclusive: -40.1%
CCOC(=O)c1sc2nc(CC(=O)OC)nc(N(C)CCc3ccccn3)c2c1C	inconclusive: -53.9%
Cc1c(NC(=O)c2ccc(N(Cc3ccccc3)S(C)(=O)=O)cc2)c(=O)n(-c2ccccc2)n1C	inconclusive: -45.5%
Nc1scc2c(C(=O)O)nn(-c3ccccc3)c(=O)c12	inconclusive: -45.8%
CC1=NN(c2nc(-c3ccc(C)cc3)cs2)C(=O)C1N=Nc1cccc(O)c1 (stereo not drawn)	inactive: -25.4%
Cc1cc(C)c2c(=O)[nH]n(C3CCOC(C)(C)C3)c2n1 (stereo not drawn)	inconclusive: -58.9%
Cc1onc(-c2ccccc2)c1C(=O)OCc1nnc(-c2ccccc2)o1	inactive: -35.7%
O=S(=O)(NCc1cccs1)c1ccc(Br)cc1	inconclusive: -41.8%
O=C1C=CC(=O)N1CCCCCCN1C(=O)C=CC1=O	active: -102%
Cc1csc(N(C(=O)c2ccccc2F)c2ccccc2)n1	inconclusive: -49.3%
COc1ccccc1/C=C/C=C(\C#N)C(=O)NC(C)c1ccccc1 (stereo not drawn)	inconclusive: -56.1%
CC(=O)c1c(C)[nH]c(C(=O)OCC(=O)Nc2cc(S(=O)(=O)N3CCCC3)ccc2Cl)c1C	inconclusive: -48.8%
CCn1nc([N+](=O)[O-])c(C(C#N)c2nc3cc(C(F)(F)F)ccc3s2)c(Cl)c1=O (stereo not drawn)	inconclusive: -40.6%
CCCCn1c(=O)[nH]c(=O)c2c1nc(Cn1ncc(Cl)c(Cl)c1=O)n2CCC	active: -100%
COc1ccc(N/C=C(\C2OC(=O)c3ccccc32)[N+](=O)[O-])cc1 (stereo not drawn)	inconclusive: -57.7%
CCOc1ccccc1/C=N/n1c(C)nc2ccccc2c1=O	inconclusive: -44.3%
C=CCNc1nc(-c2ccc([N+](=O)[O-])cc2)cs1	active: -69.3%
c1ccc(-c2ccccc2OCCCN2CCCCCC2)cc1	active: -72%

SMILES	activity change, negative = inhibition
CC(/C=N/NC(=O)c1sc(N)nc1C)=C\c1ccccc1	inactive: -6.6%
COc1ccccc1-c1sc2ccccc2c1-c1ccc2c(c1)OCCO2	inconclusive: -40.9%
CCCN(CCC)CCNC(=O)C1(O)c2ccccc2NC(=O)N1c1cccc(OC)c1 (stereo not drawn)	inconclusive: -53.2%
CCOC(=O)c1nc2ccccc2c(=O)n1-c1ccc(C)cc1C	inconclusive: -44.5%
COc1ccc(NC(=O)C2CCCN2C(=O)NC2CCCCC2)cc1OC (stereo not drawn)	inconclusive: -43.4%
CN1CCN(Cc2ccccc2Sc2ccccc2)CC1	inconclusive: -44.4%
CC(C)N1C(=O)c2ccccc2NC(=O)C1C(=O)NC1CC1 (stereo not drawn)	inactive: 53.6%
CCn1cc(C(=O)O)c(=O)c2cc(F)c(N3CCN(C(=S)Nc4ccccc4OC)CC3)cc21	inactive: -37.8%
COc1ccc(OCC(=O)Nc2ccc3c(c2)nc(CCn2ccccc2=O)n3C)cc1	inconclusive: -55.4%
CC(=O)Nc1ccc(CNc2nc(NC(C)C)nc3cc(-c4ccccc4)sc23)cc1	active: -98.1%
COc1cc2ccccc2cc1C(=O)OCC(=O)NC1CCS(=O)(=O)C1 (stereo not drawn)	inactive: 12.1%
CN(C)c1cccc2c1c(NC(=O)Nc1ccc(F)cc1F)nn2C	active: -62.7%
Cc1cc(C)c(S(=O)(=O)c2ccccc2Cl)c(Cl)n1	inconclusive: -51.2%
CC(C)COc1cccc(C(=O)Nc2ccc(-c3nc4ncccc4o3)cc2)c1	inactive: 7.35%
CC1CCN(C(=O)Cn2cc(SCC(=O)NCc3ccccc3Cl)c3ccccc32)CC1	inconclusive: -44.3%
CC1CC(C)CN(CC(O)COCc2ccccc2)C1 (stereo not drawn)	inactive: 3.52%
NNC(=O)C1SCCN1S(=O)(=O)c1ccc(Cl)cc1 (stereo not drawn)	inactive: 29%
COC(=O)c1cc(CSc2nc3ccccc3[nH]2)oc1C	inactive: 13.6%
CN(CC(=O)Nc1ccccc1-c1ccccc1)C1CCCCC1	inconclusive: -41.6%
O=C1CC(C(=O)O)S/C(=N\NC(=O)c2ccccc2)N1 (stereo not drawn)	active: -82.2%
Cc1cc(C)c2cc(C(=O)N3CCC(C(=O)c4ccc(F)cc4)CC3)[nH]c2c1	inconclusive: -46.1%
CCn1cc(/C=N\NC(=O)c2ccccc2Cl)cn1	inconclusive: -42.2%

SMILES	activity change, negative = inhibition
CC(=O)N1CCc2cc(C(=O)CN3CCN(c4cccc(Cl)c4)CC3)ccc21	inactive: -17.1%
CCc1c(C)nc(N2CCN(c3ccccc3F)CC2)[nH]c1=O	inconclusive: -40.4%
Cc1ccc(S(=O)(=O)N2CCC(=O)N([C@H](COCc3ccc(Cl)c(Cl)c3)Cc3ccccc3)CC2)cc1	inactive: -19.9%
Cc1ccc(/C=N/n2c(-c3ccc(Cl)cc3)n[nH]c2=S)s1	inactive: -23.2%
COc1ccc(CCNC(=O)c2ccc3c(c2)N(Cc2ccccc2C)C(=O)c2ccccc2S3)cc1OC	active: -78.7%
CCOc1ccc(NC(=S)NC(=O)/C=C/c2ccc(C)cc2)c([N+](=O)[O-])c1	inconclusive: -59.9%
Cc1ccccc1NC(=S)N=Nc1c(O)n(C)c2ccc(S(=O)(=O)N3CCOCC3)cc12	inconclusive: -49.2%
CCOC(=O)Cc1nnc(NC(=O)C(CC)Sc2nc(C)cc(=O)[nH]2)s1 (stereo not drawn)	inconclusive: -49.6%
C=CCn1cc(C(=O)N2CCN(CC)CC2)c(=O)c2cc(S(=O)(=O)N(CC)CC)ccc21	inconclusive: -40.2%
CCCCN(C(=O)CNC(=O)c1cccs1)C(C(=O)NC1CCCC1)c1ccncc1 (stereo not drawn)	inconclusive: -56.2%
O=C(CSc1ccsc1[N+](=O)[O-])N1CCN(c2ccccc2)CC1	inconclusive: -59%
COc1ccc(CNCc2ccc(OC)c3ccccc23)cc1	inconclusive: -54.1%
O=c1nc(/C=C/c2ccc(Cl)cc2Cl)cc(C(F)(F)F)[nH]1	inconclusive: -50.5%
CCN(CC)S(=O)(=O)c1cc(C(=O)OCC(=O)Nc2cccc(C)c2C)ccc1F	inconclusive: -56.5%
Oc1ccc(C2C[C@H]3CC[C@@H]2C3)cc1O (stereo partly drawn)	inconclusive: -44.8%
Cc1nn(CC(=O)N2CCN(c3cccc(C(F)(F)F)c3)CC2)c(=O)c2cccn12	active: -66.8%
CCN(CC)CCCNC(=O)CN1N=C(c2ccccc2)CCC1=O	inconclusive: -48%
O=C(Cc1ccccc1)NCC(=O)N1CCN(c2ccc(F)cc2)CC1	inactive: 15%
CC(C)(C)NCc1cc(Cl)ccc1OCc1ccccc1F	inconclusive: -43.8%
CCN1CCN(c2sc(S(=O)(=O)CC)nc2S(=O)(=O)c2ccc(Cl)cc2)CC1	inconclusive: -42.6%
O=C(c1ccccc1)c1ccc(OCC(O)CNCc2cccc(Cl)c2)cc1 (stereo not drawn)	inactive: -1.21%
Cc1ccc(-n2nc(C(=O)c3ccccc3)n3c(=O)cc(-c4ccccc4)nc23)cc1	inactive: -32.5%

A draw from above in order of length of the SMILES, smallest number first:
SMILES	activity change, negative = inhibition
CN1CCN(Cc2ccccc2Sc2ccccc2)CC1	inconclusive: -44.4%
O=S(=O)(NCc1cccs1)c1ccc(Br)cc1	inconclusive: -41.8%
CCn1cc(/C=N\NC(=O)c2ccccc2Cl)cn1	inconclusive: -42.2%
CC(C)(C)NCc1cc(Cl)ccc1OCc1ccccc1F	inconclusive: -43.8%
O=C1C=CC(=O)N1CCCCCCN1C(=O)C=CC1=O	active: -102%
COC(=O)c1cc(CSc2nc3ccccc3[nH]2)oc1C	inactive: 13.6%
CC(/C=N/NC(=O)c1sc(N)nc1C)=C\c1ccccc1	inactive: -6.6%
O=C1CC(C(=O)O)S/C(=N\NC(=O)c2ccccc2)N1 (stereo not drawn)	active: -82.2%
CCc1c(C)nc(N2CCN(c3ccccc3F)CC2)[nH]c1=O	inconclusive: -40.4%
COC(=O)c1cc2occc2n1Cc1nc(-c2ccccc2F)oc1C	inconclusive: -40.1%
COc1ccc(NC(=O)C2CCCN2C(=O)NC2CCCCC2)cc1OC (stereo not drawn)	inconclusive: -43.4%
Cc1ccc(/C=N/n2c(-c3ccc(Cl)cc3)n[nH]c2=S)s1	inactive: -23.2%
O=C(c1ccccc1)c1ccc(OCC(O)CNCc2cccc(Cl)c2)cc1 (stereo not drawn)	inactive: -1.21%
CC(C)COc1cccc(C(=O)Nc2ccc(-c3nc4ncccc4o3)cc2)c1	inactive: 7.35%
CCOC(=O)Cc1nnc(NC(=O)C(CC)Sc2nc(C)cc(=O)[nH]2)s1 (stereo not drawn)	inconclusive: -49.6%
COc1ccc(N/C=C(\C2OC(=O)c3ccccc32)[N+](=O)[O-])cc1 (stereo not drawn)	inconclusive: -57.7%
CCCN(CCC)CCNC(=O)C1(O)c2ccccc2NC(=O)N1c1cccc(OC)c1 (stereo not drawn)	inconclusive: -53.2%
CCCCn1c(=O)[nH]c(=O)c2c1nc(Cn1ncc(Cl)c(Cl)c1=O)n2CCC	active: -100%
Cc1cc(C)c2cc(C(=O)N3CCC(C(=O)c4ccc(F)cc4)CC3)[nH]c2c1	inconclusive: -46.1%
Cc1nn(CC(=O)N2CCN(c3cccc(C(F)(F)F)c3)CC2)c(=O)c2cccn12	active: -66.8%
Cc1ccc(C(=O)COC(=O)CCC(=O)Nc2cccc(Cl)c2)cc1[N+](=O)[O-]	inconclusive: -51.8%
CCn1cc(C(=O)O)c(=O)c2cc(F)c(N3CCN(C(=S)Nc4ccccc4OC)CC3)cc21	inactive: -37.8%
CCn1nc([N+](=O)[O-])c(C(C#N)c2nc3cc(C(F)(F)F)ccc3s2)c(Cl)c1=O (stereo not drawn)	inconclusive: -40.6%
CC(=O)c1c(C)[nH]c(C(=O)OCC(=O)Nc2cc(S(=O)(=O)N3CCCC3)ccc2Cl)c1C	inconclusive: -48.8%
Cc1c(NC(=O)c2ccc(N(Cc3ccccc3)S(C)(=O)=O)cc2)c(=O)n(-c2ccccc2)n1C	inconclusive: -45.5%
Cc1ccc(S(=O)(=O)N2CCC(=O)N([C@H](COCc3ccc(Cl)c(Cl)c3)Cc3ccccc3)CC2)cc1	inactive: -19.9%

(list continues)

SMILES	activity change, negative = inhibition
COc1ccc(/C=N/NC(=O)c2cc3c(ccc4ccccc43)o2)cc1OC	inconclusive: -44.2%
C=CCn1c(SCc2nc3sc(C(=O)O)c(C)c3c(=O)[nH]2)nnc1-c1ccc(C(C)(C)C)cc1	inconclusive: -42%
CCCc1c(C(=O)Nc2cc(C(C)(C)C)on2)cnn1-c1ccccc1	inconclusive: -40.4%
COC(=O)Cn1c(CN2CCc3ccccc3C2)nc2c1c(=O)n(C)c(=O)n2C	active: -66.4%
Cc1ccc(NC(=O)C2CCCN2S(=O)(=O)c2ccc3c(c2)CCCC(=O)N3)cc1Cl (stereo not drawn)	inconclusive: -50.1%
O=C(NCCN1CCNCC1)c1ccccn1	inactive: -2.51%
Cn1nnc2c(N3CCN(c4cccc(C(F)(F)F)c4)CC3)ncnc21	inconclusive: -52.7%
C=C(CN(C)C)C(=O)c1ccc(C)cc1C	active: -76.8%
O=C(CSc1n[nH]c(-c2ccccc2Cl)n1)NC1CCCCC1	inconclusive: -59.7%
c1ccc(-c2cccc(-c3ccccc3)n2)cc1	active: -64.6%
O=C(Nc1ccc(F)cc1)N1CCN(C(=O)c2nsc3ccccc23)CC1	inconclusive: 0%
CC(=O)N1CCC2(CC1)C/C(=N\NC(=S)Nc1ccccc1F)c1cc(O)ccc1O2	active: -82.4%
O=C1C(=O)c2ccc(-c3ccccc3)cc2-c2ccccc21	active: -99%
CC(=O)c1ccc(S(=O)(=O)NCC2(N3CCOCC3)CCCCC2)cc1	inconclusive: 0%
CCOC(=O)Cc1nc(-c2ccc(Cl)cc2)n[nH]1	inconclusive: -43.5%
COc1ccccc1NC(=O)c1ccccc1NC(=O)c1ccccn1	inactive: -31.4%
COc1ccc(C(=O)Nc2ccccc2C(=O)Nc2ccccc2C(=O)O)cc1	inactive: 40.2%
O=C(Cc1sc(-c2ccccc2)nc1-c1ccccc1)Nc1ccc(Cl)cc1	active: -76%
O=C(Nc1sc2c(c1C(=O)O)CCC2)C(=O)N1CCOCC1	inactive: 1.82%
CCOC(=O)Nc1ccc2c(c1)N(C(=O)CN1CCN(C)CC1)c1ccccc1S2	inactive: 3.84%
CC12CCC(=O)N1C(C(=O)OCC(=O)Nc1ccc(Cl)c(Cl)c1)CS2 (stereo not drawn)	inactive: -15.8%
O=C(/C=C/c1ccccc1Cl)Nn1cnc2ccccc2c1=O	inconclusive: -43.8%
